From patent publication US20060292560

Biological target: p53 (Homo sapiens) (UniProt P04637)
Experiment: activity in cells
Conditions: luciferase reporter induced by p53 cotransfection in HeLa; fold value not in the text provided; protein in cells; only the site is given

Sequence | activity on this sequence
CAAGAAGGGGACTCGGCTTGTCTGAACTAGCATAAGGAAGTCCC (double strand) [Sequence B (BAC RPII-557N21, AC009242)] | active
CTTCCCTCATCCTCCAGCAGGCTAGCTCGGGCTTGGTCACCTGACAGGGG (double strand) [Sequence A (chromosome 17, AC005562)] | active

The exact form of at least one protein or probe is not confirmed.
